# Assay results reported in PubChem BioAssay (EPA / NIEHS).
# Chains of the proteins cited; added tags and fusions are not shown. Lines headed by an entry give the natural chain unless they say otherwise; changes in a name come on top.
# UniProt P04150: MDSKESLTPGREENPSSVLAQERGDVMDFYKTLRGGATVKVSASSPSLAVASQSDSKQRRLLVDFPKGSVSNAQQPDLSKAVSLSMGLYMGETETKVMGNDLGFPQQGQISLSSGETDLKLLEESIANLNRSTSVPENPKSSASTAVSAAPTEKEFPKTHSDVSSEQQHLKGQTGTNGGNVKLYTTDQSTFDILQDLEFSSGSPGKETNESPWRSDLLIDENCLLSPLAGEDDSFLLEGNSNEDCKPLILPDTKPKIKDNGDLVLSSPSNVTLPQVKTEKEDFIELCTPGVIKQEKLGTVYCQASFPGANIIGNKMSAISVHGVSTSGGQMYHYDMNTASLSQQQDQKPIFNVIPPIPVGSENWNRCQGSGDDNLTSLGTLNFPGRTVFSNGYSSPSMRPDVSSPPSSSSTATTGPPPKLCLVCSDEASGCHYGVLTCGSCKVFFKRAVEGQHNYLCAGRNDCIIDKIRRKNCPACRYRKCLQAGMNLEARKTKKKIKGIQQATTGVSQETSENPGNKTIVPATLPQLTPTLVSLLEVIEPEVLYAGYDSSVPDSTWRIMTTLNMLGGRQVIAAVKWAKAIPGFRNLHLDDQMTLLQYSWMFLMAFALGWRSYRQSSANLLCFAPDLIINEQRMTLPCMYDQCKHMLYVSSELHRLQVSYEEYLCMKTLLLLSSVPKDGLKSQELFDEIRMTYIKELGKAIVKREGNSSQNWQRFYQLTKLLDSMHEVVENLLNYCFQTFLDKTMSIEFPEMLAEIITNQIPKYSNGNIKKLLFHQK
# UniProt Q03181: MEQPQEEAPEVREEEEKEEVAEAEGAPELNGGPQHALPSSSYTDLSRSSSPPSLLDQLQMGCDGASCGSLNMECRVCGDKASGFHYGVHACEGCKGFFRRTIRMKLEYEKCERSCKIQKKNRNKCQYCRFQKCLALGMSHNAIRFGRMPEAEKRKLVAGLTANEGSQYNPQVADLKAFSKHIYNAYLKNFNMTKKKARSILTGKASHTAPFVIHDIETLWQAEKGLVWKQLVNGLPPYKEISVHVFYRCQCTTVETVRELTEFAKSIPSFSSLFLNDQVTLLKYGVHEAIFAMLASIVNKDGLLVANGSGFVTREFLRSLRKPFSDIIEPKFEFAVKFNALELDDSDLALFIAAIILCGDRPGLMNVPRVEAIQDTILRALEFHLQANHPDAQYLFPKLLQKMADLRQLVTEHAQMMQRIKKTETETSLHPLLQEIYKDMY
# UniProt P37231: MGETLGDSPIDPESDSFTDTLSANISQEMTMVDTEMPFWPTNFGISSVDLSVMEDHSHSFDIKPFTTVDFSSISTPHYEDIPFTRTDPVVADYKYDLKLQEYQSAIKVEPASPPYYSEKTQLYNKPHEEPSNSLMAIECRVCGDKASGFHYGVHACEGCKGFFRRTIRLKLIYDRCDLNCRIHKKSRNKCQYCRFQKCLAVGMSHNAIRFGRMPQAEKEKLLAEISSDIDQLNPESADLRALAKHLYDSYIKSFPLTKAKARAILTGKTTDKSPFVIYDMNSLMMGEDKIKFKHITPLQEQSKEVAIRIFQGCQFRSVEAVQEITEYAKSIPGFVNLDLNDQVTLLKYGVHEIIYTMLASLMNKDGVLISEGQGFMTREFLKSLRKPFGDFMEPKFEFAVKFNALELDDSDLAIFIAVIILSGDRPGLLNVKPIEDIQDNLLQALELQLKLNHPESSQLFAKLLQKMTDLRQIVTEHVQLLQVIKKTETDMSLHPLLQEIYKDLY
# UniProt P11473: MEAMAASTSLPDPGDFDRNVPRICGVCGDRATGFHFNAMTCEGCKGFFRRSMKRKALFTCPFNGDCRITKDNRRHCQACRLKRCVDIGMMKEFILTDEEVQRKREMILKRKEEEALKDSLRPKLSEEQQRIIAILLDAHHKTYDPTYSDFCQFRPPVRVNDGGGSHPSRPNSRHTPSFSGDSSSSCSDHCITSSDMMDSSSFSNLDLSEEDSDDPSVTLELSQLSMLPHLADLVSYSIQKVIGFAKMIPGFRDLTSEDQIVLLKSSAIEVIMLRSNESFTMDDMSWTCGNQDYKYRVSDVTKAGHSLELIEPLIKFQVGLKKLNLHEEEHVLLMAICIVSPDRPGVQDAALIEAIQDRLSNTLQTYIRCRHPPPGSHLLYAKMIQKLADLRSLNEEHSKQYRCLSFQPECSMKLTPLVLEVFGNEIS
# UniProt P62508: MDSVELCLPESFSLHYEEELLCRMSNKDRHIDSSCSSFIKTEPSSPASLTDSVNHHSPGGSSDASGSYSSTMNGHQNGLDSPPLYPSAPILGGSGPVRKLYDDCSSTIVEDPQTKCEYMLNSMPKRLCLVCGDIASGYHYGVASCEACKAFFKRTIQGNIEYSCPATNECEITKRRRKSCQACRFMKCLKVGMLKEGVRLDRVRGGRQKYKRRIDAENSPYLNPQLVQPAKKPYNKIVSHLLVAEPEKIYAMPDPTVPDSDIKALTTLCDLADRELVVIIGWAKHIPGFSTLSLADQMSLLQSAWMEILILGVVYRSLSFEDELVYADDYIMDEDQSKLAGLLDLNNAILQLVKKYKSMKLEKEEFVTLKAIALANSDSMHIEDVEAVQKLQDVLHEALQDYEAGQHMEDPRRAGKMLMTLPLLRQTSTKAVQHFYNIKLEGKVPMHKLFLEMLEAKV
# UniProt P55055, whole entry, looked up: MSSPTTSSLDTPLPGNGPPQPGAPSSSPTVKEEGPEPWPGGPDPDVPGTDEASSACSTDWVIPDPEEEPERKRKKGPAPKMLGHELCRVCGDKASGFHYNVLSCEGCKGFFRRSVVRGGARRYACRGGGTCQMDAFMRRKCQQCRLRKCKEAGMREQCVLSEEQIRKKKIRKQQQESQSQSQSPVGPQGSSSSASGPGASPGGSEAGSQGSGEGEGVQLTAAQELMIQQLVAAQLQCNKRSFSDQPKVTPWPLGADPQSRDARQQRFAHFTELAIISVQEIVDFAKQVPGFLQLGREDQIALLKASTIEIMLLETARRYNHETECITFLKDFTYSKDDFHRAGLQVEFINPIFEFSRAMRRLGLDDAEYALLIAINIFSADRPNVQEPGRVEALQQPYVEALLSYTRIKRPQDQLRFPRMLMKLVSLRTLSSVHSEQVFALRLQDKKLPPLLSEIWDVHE
# UniProt P19793: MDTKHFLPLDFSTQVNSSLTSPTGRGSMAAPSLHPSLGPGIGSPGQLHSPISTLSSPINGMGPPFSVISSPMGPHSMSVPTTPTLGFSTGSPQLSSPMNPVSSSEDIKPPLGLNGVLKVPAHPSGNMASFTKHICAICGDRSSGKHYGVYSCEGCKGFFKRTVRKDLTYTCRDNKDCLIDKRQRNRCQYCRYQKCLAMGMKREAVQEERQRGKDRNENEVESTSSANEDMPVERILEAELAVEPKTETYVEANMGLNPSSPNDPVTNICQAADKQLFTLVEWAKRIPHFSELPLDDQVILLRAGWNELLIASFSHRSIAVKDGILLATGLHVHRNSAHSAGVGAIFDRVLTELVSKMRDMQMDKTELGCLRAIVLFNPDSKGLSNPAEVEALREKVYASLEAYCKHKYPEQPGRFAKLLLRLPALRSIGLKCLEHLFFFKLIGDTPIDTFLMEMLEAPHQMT
# UniProt P04406: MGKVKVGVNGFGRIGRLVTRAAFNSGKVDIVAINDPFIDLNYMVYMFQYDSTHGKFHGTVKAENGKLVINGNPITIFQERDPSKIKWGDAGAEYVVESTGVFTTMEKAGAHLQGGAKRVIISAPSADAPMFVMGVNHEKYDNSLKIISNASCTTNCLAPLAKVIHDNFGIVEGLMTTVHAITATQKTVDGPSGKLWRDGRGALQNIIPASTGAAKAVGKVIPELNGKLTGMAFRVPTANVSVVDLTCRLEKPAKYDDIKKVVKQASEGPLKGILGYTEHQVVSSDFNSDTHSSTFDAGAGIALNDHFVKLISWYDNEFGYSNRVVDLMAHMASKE
# UniProt P04637, whole entry, looked up: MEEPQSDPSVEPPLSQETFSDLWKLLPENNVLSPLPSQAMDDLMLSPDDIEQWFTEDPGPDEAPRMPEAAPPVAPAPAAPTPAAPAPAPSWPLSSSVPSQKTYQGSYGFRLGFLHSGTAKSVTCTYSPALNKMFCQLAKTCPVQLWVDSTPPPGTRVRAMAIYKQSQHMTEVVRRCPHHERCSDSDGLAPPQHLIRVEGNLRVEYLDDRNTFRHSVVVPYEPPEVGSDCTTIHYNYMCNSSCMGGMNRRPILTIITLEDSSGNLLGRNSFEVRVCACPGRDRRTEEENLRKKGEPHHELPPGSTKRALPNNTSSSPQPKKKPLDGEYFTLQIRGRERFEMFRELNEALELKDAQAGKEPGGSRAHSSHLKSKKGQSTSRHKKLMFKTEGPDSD
# “And” between values parts separate entries of the source, which are not always exact repeats. Identical values can stand only once. The shares of active, inactive and inconclusive entries below differ from those in the screen. For some of these results: Where the call is inconclusive, the potency comes from a doubtful curve fit. A structure can be active in one record and inactive in another. The source made the active and inactive calls. The calls were made as follows: active = hit-call score of the fitted dose curve at least 0.9, where 1 is the maximum; inconclusive = response in the unintended direction; inactive = score below 0.9.
# How the values were obtained:
# [1] = target: Glucocorticoid receptor (Homo sapiens) (UniProt P04150); test: ATG_GR_TRANS: Attagene TRANS-FACTORIAL HepG2 Assay for human Glucocorticoid Receptor (GR) (AID 2282978); conditions: HepG2 Attagene TRANS GR reporter, mRNA transcription;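 also: activators score as hits since higher reporter transcript over DMSO is fitted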
# Method in brief: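 After 24 h incubation with test chemical, transfected HepG2 cells were lysed for RNA; reporter cDNA was amplified, FAM-labelled, HpaI-digested and sized on a capillary analyser. Signal gain relative to DMSO was scored.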
# [2] = target: human Peroxisome Proliferator-activated Receptor delta (PPARd), PPARD (gene 5467) (UniProt Q03181); test: ATG_PPARd_TRANS: Attagene TRANS-FACTORIAL HepG2 Assay for human Peroxisome Proliferator-activated Receptor delta (PPARd) (AID 2283002)
# Method in brief: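 Measured quantity: GAL4-UAS reporter transcript induction in HepG2 after 24 h chemical dosing, with NR-Gal4 chimeras supplied by transient transfection. Detection by RT-PCR and capillary electrophoresis; upward fit against DMSO.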
# [3] = target: Peroxisome proliferator-activated receptor gamma (Homo sapiens) (UniProt P37231); test: ATG_PPARg_TRANS: Attagene TRANS-FACTORIAL HepG2 Assay for human Peroxisome Proliferator-activated Receptor-gamma (PPARg) (AID 2283007)
# Method in brief: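 Twenty-four hours after chemical dosing of transiently transfected HepG2 cells, isolated RNA was converted to cDNA, reporter sequences amplified and 6-FAM-labelled, then HpaI-digested and analysed by capillary electrophoresis. Signal increase against DMSO was fitted.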
# [4] = target: human Vitamin D Receptor (VDR), VDR (gene 7421) (UniProt P11473); test: ATG_VDR_TRANS: Attagene TRANS-FACTORIAL HepG2 Assay for human Vitamin D Receptor (VDR) (AID 2283022)
# Method in brief: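 Multiplexed TRANS reporter in HepG2; 24 h treatment; reporter mRNA by RT-PCR plus capillary electrophoresis; upregulation scored relative to DMSO.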
# [5] = target: Estrogen-related receptor gamma (Homo sapiens) (UniProt P62508); test: ATG_ERRg_TRANS: Attagene TRANS-FACTORIAL HepG2 Assay for human Estrogen-Related Receptor gamma (ERRg) (AID 2282977); conditions: HepG2 Attagene TRANS reporter, ERRg transactivation;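 also: hits increase reporter signal over DMSO so potencies reflect activators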
# Method in brief: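 Transfect HepG2 with multiple GAL4-UAS reporter transcription units; dose chemicals 24 h; isolate RNA, reverse-transcribe with oligo(dT), PCR-amplify, label with 6-FAM, digest with HpaI; size fragments by capillary electrophoresis. DMSO serves as negative control.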
# [6] = ATG_M_06_TRANS: Attagene TRANS-FACTORIAL HepG2 Assay for M06 Transcription Factor (Internal Marker) (AID 2282983); conditions: HepG2 Attagene TRANS M06 internal marker reporter;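 as to AC50: potency for rise in reporter mRNA above DMSO baseline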;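 as to outcome: reporter transcript level by RT-PCR then capillary electrophoresis fluorescence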
# Method in brief: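 Internal-marker background readout from a multiplexed TRANS reporter system in HepG2; 24 h dosing; mRNA induction quantified by RT-PCR plus capillary electrophoresis fluorescence; DMSO as negative control and baseline.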
# [7] = target: Oxysterols receptor LXR-beta (Homo sapiens) (UniProt P55055); test: ATG_LXRb_TRANS: Attagene TRANS-FACTORIAL HepG2 Assay for human Liver X Receptor beta (LXRb) (AID 2282981); conditions: HepG2 Attagene TRANS GAL4-LXRb reporter, mRNA
# Method in brief: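 In this TRANS format, exogenous chimeric NR-Gal4 protein activity, not endogenous factors, drives reporter expression in transfected human HepG2 cells. Exposure lasted 24 h; reporter mRNA was read by fluorescent capillary electrophoresis.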
# [8] = target: Retinoic acid receptor RXR-alpha (Homo sapiens) (UniProt P19793); test: OT_NURR1_NURR1RXRa_0480: Odyssey Thera (OT) 8-hour HEK293T Protein Complementation Assay for Nurr1/retinoid X receptor (RXR) (AID 2283385)
# Method in brief: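 8 h compound exposure, HEK293T; Nurr1/RXRα fragment complementation; fluorescence intensity; positive fitting direction vs DMSO baseline.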
# [9] = target: Retinoic acid receptor RXR-alpha (Homo sapiens) (UniProt P19793); test: OT_NURR1_NURR1RXRa_1440: Odyssey Thera (OT) 24-hour HEK293T Protein Complementation Assay for Nurr1/retinoid X receptor (RXR) (AID 2283386)
# Method in brief: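 Interaction of Nurr1 with RXRα brings fused reporter fragments together in human HEK293T cells, restoring a functional reporter. Fluorescence intensity is measured 24 h after chemical treatment, and values are analysed in the positive direction against DMSO.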
# [10] = ACEA_ER_AUC_viability: ACEA Biosciences xCELLigence Real-Time Cell Analysis on Estrogen Receptor Agonism for Viability (AID 2283782);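 also: continuous compound exposure with impedance area under curve over 80 h; hit means loss of impedance signal meaning reduced cell growth or viability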
# Method in brief: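 T-47D human breast cells in phenol red-free RPMI1640 with 10% charcoal-stripped FBS were dosed with an 8-point 1:4 dilution series from 100 uM top final concentration, in duplicate. Impedance-based growth was followed for 80 h; AUC analysed versus DMSO.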
# [11] = CCTE_Harrill_HTTr_CellCount_MCF7: CCTE's Cell Proliferation Assessment for the High-Throughput Transcriptomics (HTTr) Platform, Harrill Lab (AID 2284012);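 also: count of Hoechst-stained nuclei per well by high-content imaging in MCF-7 cells; cells exposed to compound for six hours; intended direction is loss of nuclei count meaning fewer cells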
# Method in brief: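 Chemicals in eight-point dilution series are added to MCF-7 cells for six hours, nuclei are stained with Hoechst and imaged, and per-well nuclei counts are fitted in both directions relative to DMSO controls.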
# [12] = read-out: HMG-CoA synthase (HMGCS2), HMGCS2 (gene 3158); test: CLD_HMGCS2_24hr: CellzDirect (CLD) Gene Expression Assay for HMG-CoA synthase (HMGCS2) at 24 hours (AID 2283691)
# Method in brief: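 Primary human hepatocytes from two donor preparations, dosed daily with fresh solutions; vehicle 0.2% DMSO, 24 h harvest. HMGCS2 mRNA quantified by qNPA with S1 nuclease digestion and chemiluminescence; gain fitted versus DMSO, cytotoxicity annotated by morphology.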
# [13] = read-out: Glyceraldehyde-3-phosphate dehydrogenase (Homo sapiens) (UniProt P04406); test: CLD_GAPDH_24hr: CellzDirect (CLD) Gene Expression Assay for Baseline Control (Glyceraldehyde 3-phosphate dehydrogenase) at 24 hours (AID 2283692)
# Method in brief: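 Primary human hepatocytes (two donor preparations) dosed daily for two days, 0.2% DMSO vehicle; GAPDH mRNA measured at 24 h by qNPA chemiluminescence as a background control, gain-of-signal fitted against DMSO.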
# [14] = read-out: HMG-CoA synthase (HMGCS2), HMGCS2 (gene 3158); test: CLD_HMGCS2_48hr: CellzDirect (CLD) Gene Expression Assay for HMG-CoA synthase (HMGCS2) at 48 hours (AID 2283711)
# Method in brief: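 Primary human hepatocytes from two donors dosed daily for two days, 0.2% DMSO vehicle. HMGCS2 mRNA measured 48 h after dosing by quantitative nuclease protection assay with chemiluminescent read-out; induction fitted relative to DMSO, cytotoxicity flagged by microscopy.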
# [15] = target: Cellular tumor antigen p53 (Homo sapiens) (UniProt P04637); test: TOX21_p53_BLA_p5_ratio: Tox21 HCT-116 p53 Agonism Beta-lactamase Assay, Ratio, Phase 5 (AID 2283599)
# Method in brief: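 HCT-116 cells carrying a p53-inducible beta-lactamase reporter were seeded at 4000 cells/well and dosed after 5 h with compound in DMSO (217-fold dilution). After 16 h at 37C, CCF4-AM substrate was added for 2 h, and the 460/530 nm emission ratio was scored as gain-of-signal versus DMSO.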
# [16] = target: Cellular tumor antigen p53 (Homo sapiens) (UniProt P04637); test: TOX21_p53_BLA_p2_ratio: Tox21 HCT-116 p53 Agonism Beta-lactamase Assay, Ratio, Phase 2 (AID 2283592)
# Method in brief: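 Human colon HCT116 cells with an inducible p53 beta-lactamase reporter are exposed to test chemicals for 16 h at 37C. Reporter induction is read as the 460/530 nm emission ratio after CCF4-AM loading, normalized to DMSO.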
# [17] = target: Cellular tumor antigen p53 (Homo sapiens) (UniProt P04637); test: TOX21_p53_BLA_p3_ratio: Tox21 HCT-116 p53 Agonism Beta-lactamase Assay, Ratio, Phase 3 (AID 2283596)
# Method in brief: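 HCT116 p53-bla cells (4000/well) given compound in DMSO (217-fold dilution) after 5 h, incubated 16 h at 37C. CCF4-AM substrate 2 h at room temperature; 460/530 nm emission ratio, gain fitted against DMSO.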
# [18] = TOX21_p53_BLA_p5_viability: Viability Assessment in the Tox21 HCT-116 p53 Agonism Beta-lactamase Assay, Phase 5 (AID 2283600)
# Method in brief: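 Seeded cells (4000/well) settle 5 h before compound addition. Plates then incubate 16 h at 37C, receive FRET substrate for 2 h, and finally CellTiter-Glo, with luminescence measured after a 30 min room-temperature incubation.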
# [19] = target: Cellular tumor antigen p53 (Homo sapiens) (UniProt P04637); test: TOX21_p53_BLA_p4_ratio: Tox21 HCT-116 p53 Agonism Beta-lactamase Assay, Ratio, Phase 4 (AID 2283601)
# Method in brief: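 HCT116 cells carrying an inducible beta-lactamase reporter were plated at 4000 cells/well, rested 5 h, then exposed to compounds in DMSO (217-fold dilution) for 16 h at 37C. CCF4-AM substrate was loaded 2 h at room temperature; 460/530 nm emission ratio scored gain-of-signal versus DMSO.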
structure (smiles),measurement,setting,value
Clc1cc(C(Cl)(Cl)Cl)cnc1Cl,outcome,[5],inactive
same,AC50,[6],inconclusive: 48.1 µM
same,AC50,[4],inconclusive: 24.8 µM
ClC(Cl)c1ccccc1,outcome,[1],inactive
same,outcome,[7],inactive
same,AC50,[6],inconclusive: 26.6 µM
same,AC50,[3],inconclusive: 100 µM
same,AC50,[4],inconclusive: 100 µM
same,AC50,[8],inconclusive: 50 µM
same,outcome,[8],inactive
same,AC50,[9],inconclusive: 50 µM
same,AC50,[10],inconclusive: 9.92 µM
same,AC50,[11],inconclusive: 9.92 µM
CCOCCOC(C)=O,AC50,[5],inconclusive: 100 µM
same,AC50,[1],inconclusive: 16.1 µM
same,AC50,[4],inconclusive: 184 µM
same,AC50,[8],inconclusive: 50 µM
same,outcome,[8],inactive
same,AC50,[9],inconclusive: 50 µM
same,outcome,[15],inactive
same,outcome,[11],inactive
CCOC(=O)CC(SP(=S)(OC)OC)C(=O)OCC (centres undefined),outcome,[1],inactive
same,outcome,[6],inactive
same,AC50,[2],inconclusive: 4.28 µM and inconclusive: 50 µM
same,AC50,[3],active: 14.2 µM and active: 25.1 µM
same,AC50,[16],inconclusive: 23 µM
same,outcome,[12],inactive
same,AC50,[13],inconclusive: 20 µM
same,AC50,[14],inconclusive: 0.0976 µM
same,outcome,[11],inactive
Nc1c(Oc2ccccc2)cc(O)c2c1C(=O)c1ccccc1C2=O,outcome,[6],inactive
same,outcome,[4],inactive
COc1cccc(C=O)c1,AC50,[7],inconclusive: 100 µM
same,AC50,[2],inconclusive: 24.2 µM
same,AC50,[3],inconclusive: 2.78 µM
same,outcome,[17],inactive
CCCCOC(C)=O,outcome,[2],inactive
same,AC50,[15],inconclusive: 47.4 µM
same,AC50,[18],inconclusive: 47.4 µM
same,outcome,[19],inactive
Nc1ccc([N+](=O)[O-])cc1Cl,AC50,[6],inconclusive: 100 µM
same,outcome,[2],inactive
same,outcome,[4],inactive
COCCOCCO,AC50,[7],inconclusive: 60.3 µM
same,AC50,[2],inconclusive: 18.4 µM
same,AC50,[3],inconclusive: 100 µM
same,AC50,[4],inconclusive: 1.82 µM
same,AC50,[8],inconclusive: 50 µM
same,AC50,[11],inconclusive: 50 µM
